PubChem BioAssay AID652243, Drosophila RNAi Screening Center – 2013
Assay: 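Fly genes required for human androgen receptor driven transcription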 (primary screen). Cell system: Drosophila S2R+ cells. Knock-down reagent: long dsRNA against Drosophila genes. Timing: 72 h (48 h, then 24 h hormone). Challenge: synthetic androgen R1881 at 10 nM for 24 h. Read-out: 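Firefly light from an androgen-responsive reporter and Renilla control light per well, raw and unnormalised, for each of two replicates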. Scale: firefly reporter light: higher = more light from androgen-responsive reporter; Renilla control light: higher = more constitutive control signal (cell number, transfection). Call rule: 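Hit when the log firefly-to-Renilla ratio dropped or increased by a fixed fold versus the mean of GFP or LacZ controls across duplicate plates; lowering cut given as 1.5 and as 3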. Calls: active = hit: reporter lowered or raised; inactive = no hit.
The deposit covers about 24,000 reagents; shown is a random part of those that have a named target and a result. Of all reagents, 246 (1%) were called active. 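Plates not normalised; calls are printed but the firefly/Renilla ratio behind them is not deposited; fold cut for lowering reported inconsistently.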 Raw values are not corrected between plates. Names joined by + are all predicted targets of the reagent. Not stated in the record: the amount of reagent.

Target gene | DRSC id | firefly reporter light, replicate 1 | firefly reporter light, replicate 2 | Renilla control light, replicate 1 | Renilla control light, replicate 2 | Call
CG14556 | DRSC14899 | 1.80e5 | 1.70e5 | 2.27e6 | 2.92e6 | inactive
CG32572 | DRSC19525 | 3.23e5 | 3.22e5 | 3.32e6 | 3.14e6 | inactive
CG32572 | DRSC19526 | 4.91e5 | 4.37e5 | 3.51e6 | 2.76e6 | inactive
CG32572 | DRSC30085 | 7.57e5 | 9.83e5 | 1.16e6 | 9.60e5 | inactive
CG5953 | DRSC01546 | 1.59e5 | 2.64e5 | 7.25e5 | 6.03e5 | inactive
CG5953 | DRSC28725 | 4.86e5 | 3.47e5 | 1.13e6 | 1.16e6 | inactive
kug | DRSC10911 | 53366 | 62166 | 3.37e5 | 4.24e5 | inactive
Shawl | DRSC02209 | 1.77e5 | 1.79e5 | 1.66e6 | 1.51e6 | inactive
Shawl | DRSC02748 | 3.70e5 | 2.39e5 | 2.88e6 | 1.79e6 | inactive
Shawl | DRSC24307 | 6.86e5 | 7.54e5 | 1.26e6 | 1.21e6 | inactive
CG31102 | DRSC14260 | 2.86e5 | 2.98e5 | 3.32e6 | 2.97e6 | inactive
CG31102 | DRSC26350 | 3.03e5 | 3.33e5 | 6.81e5 | 7.11e5 | inactive
CG31815 | DRSC01548 | 1.77e5 | 1.27e5 | 5.33e5 | 4.06e5 | inactive
CG31815 | DRSC29263 | 4.89e5 | 4.21e5 | 1.16e6 | 1.36e6 | inactive
Spn55B | DRSC07694 | 2.88e5 | 2.27e5 | 1.50e6 | 1.74e6 | inactive
Spn55B | DRSC21862 | 6.05e5 | 6.49e5 | 1.07e6 | 7.02e5 | inactive
Spn55B | DRSC27961 | 4.84e5 | 3.90e5 | 1.09e6 | 5.58e5 | inactive
kairos | DRSC23286 | 5.94e5 | 7.20e5 | 8.48e5 | 8.82e5 | inactive
kairos | DRSC30011 | 4.37e5 | 3.83e5 | 1.03e6 | 8.24e5 | inactive
Lrch | DRSC02996 | 5.61e5 | 8.57e5 | 1.84e6 | 2.13e6 | inactive
Lrch | DRSC29145 | 4.79e5 | 6.29e5 | 1.20e6 | 1.06e6 | inactive
lncRNA:CR34335 | DRSC38742 | 6.51e5 | 5.47e5 | 1.48e6 | 1.69e6 | inactive
CG14985 | DRSC08443 | 1.89e5 | 2.06e5 | 2.37e6 | 3.01e6 | inactive
Osi9 | DRSC12278 | 3.50e5 | 3.46e5 | 1.94e6 | 2.65e6 | inactive
Osi9 | DRSC28928 | 4.98e5 | 4.28e5 | 1.60e6 | 1.42e6 | inactive

8 of these entries, reformatted.
CG31815 [DRSC29263]: firefly reporter light, replicate 1 = 4.89e5; firefly reporter light, replicate 2 = 4.21e5; Renilla control light, replicate 1 = 1.16e6; Renilla control light, replicate 2 = 1.36e6; Call = inactive
Spn55B [DRSC07694]: firefly reporter light, replicate 1 = 2.88e5; firefly reporter light, replicate 2 = 2.27e5; Renilla control light, replicate 1 = 1.50e6; Renilla control light, replicate 2 = 1.74e6; Call = inactive
Spn55B [DRSC21862]: firefly reporter light, replicate 1 = 6.05e5; firefly reporter light, replicate 2 = 6.49e5; Renilla control light, replicate 1 = 1.07e6; Renilla control light, replicate 2 = 7.02e5; Call = inactive
Spn55B [DRSC27961]: firefly reporter light, replicate 1 = 4.84e5; firefly reporter light, replicate 2 = 3.90e5; Renilla control light, replicate 1 = 1.09e6; Renilla control light, replicate 2 = 5.58e5; Call = inactive
kairos [DRSC23286]: firefly reporter light, replicate 1 = 5.94e5; firefly reporter light, replicate 2 = 7.20e5; Renilla control light, replicate 1 = 8.48e5; Renilla control light, replicate 2 = 8.82e5; Call = inactive
kairos [DRSC30011]: firefly reporter light, replicate 1 = 4.37e5; firefly reporter light, replicate 2 = 3.83e5; Renilla control light, replicate 1 = 1.03e6; Renilla control light, replicate 2 = 8.24e5; Call = inactive
Lrch [DRSC02996]: firefly reporter light, replicate 1 = 5.61e5; firefly reporter light, replicate 2 = 8.57e5; Renilla control light, replicate 1 = 1.84e6; Renilla control light, replicate 2 = 2.13e6; Call = inactive
Lrch [DRSC29145]: firefly reporter light, replicate 1 = 4.79e5; firefly reporter light, replicate 2 = 6.29e5; Renilla control light, replicate 1 = 1.20e6; Renilla control light, replicate 2 = 1.06e6; Call = inactive

The results go on.
Target gene | DRSC id | firefly reporter light, replicate 1 | firefly reporter light, replicate 2 | Renilla control light, replicate 1 | Renilla control light, replicate 2 | Call
Hap40 | DRSC20085 | 76442 | 40102 | 5.36e5 | 5.66e5 | inactive
Hap40 | DRSC26124 | 2.53e5 | 3.22e5 | 6.75e5 | 6.43e5 | inactive
CG10140 | DRSC09704 | 3.18e5 | 2.60e5 | 3.00e6 | 2.68e6 | inactive
CG10140 | DRSC26220 | 3.68e5 | 3.30e5 | 8.30e5 | 8.78e5 | inactive
CG9547 | DRSC03260 | 7.00e5 | 9.57e5 | 1.43e6 | 1.40e6 | inactive
CG9547 | DRSC27269 | 2.37e5 | 2.99e5 | 5.58e5 | 5.88e5 | inactive
spdo | DRSC13988 | 7.95e5 | 5.76e5 | 1.55e6 | 6.02e5 | inactive
spdo | DRSC24230 | 6.22e5 | 7.67e5 | 9.49e5 | 8.31e5 | inactive
Acp1 | DRSC01854 | 2.09e5 | 1.52e5 | 1.93e6 | 1.50e6 | inactive
Twdlalpha | DRSC19914 | 3.42e5 | 2.03e5 | 3.05e6 | 2.25e6 | inactive
Twdlalpha | DRSC28661 | 5.03e5 | 3.68e5 | 1.18e6 | 1.34e6 | inactive
scny | DRSC10509 | 5.95e5 | 6.29e5 | 9.79e5 | 1.35e6 | inactive
scny | DRSC23229 | 6.20e5 | 6.15e5 | 1.68e5 | 1.67e5 | inactive
scny | DRSC27520 | 1.89e5 | 1.81e5 | 4.42e5 | 5.09e5 | inactive
CG3288 | DRSC11745 | 2.56e5 | 1.85e5 | 2.72e6 | 2.25e6 | inactive
CG3216 | DRSC04347 | 2.78e5 | 4.57e5 | 1.49e6 | 2.11e6 | inactive
CG3216 | DRSC24945 | 8.15e5 | 8.41e5 | 7.30e5 | 6.89e5 | inactive
CG3216 | DRSC39319 | – | – | – | – | inactive
Nf-YC | DRSC23106 | 6.24e5 | 7.92e5 | 1.24e6 | 1.32e6 | inactive
Npc2h | DRSC14297 | 2.43e5 | 2.52e5 | 2.32e6 | 3.24e6 | inactive
Obp57a | DRSC22047 | 9.84e5 | 8.46e5 | 2.23e6 | 1.51e6 | inactive
Obp57a | DRSC25699 | 5.63e5 | 4.23e5 | 4.47e5 | 5.85e5 | inactive
CG43867 | DRSC17836 | 2.31e5 | 1.59e5 | 2.69e6 | 2.23e6 | inactive
CG43867 | DRSC17837 | 2.84e5 | 2.97e5 | 3.46e6 | 3.10e6 | inactive
CG43867 | DRSC17942 | 1.03e6 | 2.10e6 | 1.27e6 | 2.41e6 | inactive
CG43867 | DRSC17943 | 2.07e5 | 1.46e5 | 2.89e6 | 2.55e6 | inactive
CG43867 | DRSC25845 | 4.07e5 | 3.27e5 | 1.08e6 | 7.80e5 | inactive
CG43867 | DRSC28000 | 5.38e5 | 5.27e5 | 2.06e6 | 1.40e6 | inactive
CG32305 | DRSC08614 | 45431 | 74234 | 8.97e5 | 8.36e5 | inactive
CG32305 | DRSC29854 | 6.13e5 | 4.25e5 | 1.53e6 | 1.54e6 | inactive
snz | DRSC17969 | 2.88e5 | 3.05e5 | 1.23e6 | 1.80e6 | inactive
CG14154 | DRSC10156 | 2.02e5 | 1.75e5 | 2.30e6 | 2.09e6 | inactive
CG2218 | DRSC15428 | 1.35e5 | 92212 | 1.28e6 | 8.80e5 | inactive
CG2218 | DRSC28089 | 2.12e5 | 2.57e5 | 1.50e6 | 1.33e6 | active
CG7950 + Rpp14a | DRSC16353 | 78293 | 65592 | 9.26e5 | 6.66e5 | inactive
CG7950 + Rpp14a | DRSC28664 | 5.20e5 | 4.44e5 | 1.54e6 | 1.39e6 | inactive
snRNP-U1-70K | DRSC03612 | 4.65e5 | 3.83e5 | 3.79e6 | 3.66e6 | inactive
snRNP-U1-70K | DRSC22071 | 8.65e5 | 6.97e5 | 2.04e6 | 1.66e6 | inactive
snRNP-U1-70K | DRSC28803 | 5.29e5 | 4.74e5 | 8.84e5 | 8.27e5 | inactive
CG10859 | DRSC02110 | 7.48e5 | 7.93e5 | 1.23e6 | 1.53e6 | inactive
lncRNA:sphinx + ATPsynF | DRSC17191 | 8.56e5 | 7.46e5 | 1.33e6 | 8.09e5 | inactive
RecQ4 | DRSC11265 | 1.69e5 | 1.24e5 | 1.81e6 | 1.31e6 | inactive
RecQ4 | DRSC27616 | 3.36e5 | 3.08e5 | 6.81e5 | 8.26e5 | inactive
JIL-1 | DRSC11200 | 5.14e5 | 4.66e5 | 1.35e6 | 1.25e6 | inactive
JIL-1 | DRSC36727 | – | – | – | – | inactive
JIL-1 | DRSC36728 | – | – | – | – | inactive
Srp14 | DRSC15797 | 2.18e5 | 2.79e5 | 2.25e6 | 2.94e6 | inactive
CG14490 | DRSC06461 | 94259 | 1.29e5 | 1.79e6 | 1.79e6 | inactive
CG14490 | DRSC27641 | 2.88e5 | 1.84e5 | 5.15e5 | 7.29e5 | inactive
